Source: US20110070357A1, “Apparatus and Methods for Loading a Drug Eluting Medical Device” (Medtronic Vascular, Inc., priority 2009, published 2011)
For part of these data: At least one read-out could not be matched to a standard name with certainty. For part of these data: At least one structure is not confirmed: it was looked up by name or label, or the drawing left a doubt.

Legend:
[1] = solubility of sirolimus in solvents / dispersion media; type: physicochemical
Experimental: Solution 524 is a homogeneous mixture in which therapeutic substance 112 dissolves within a solvent or a solvent mixture. In one embodiment, solution 524 includes a high-capacity solvent 528 which is an organic solvent that has a high capacity to dissolve therapeutic substance 112. High capacity as utilized herein is defined as an ability to dissolve therapeutic substance 112 at concentrations greater than 500 mg of substance per milliliter of solvent. Examples of high capacity drug dissolving solvents for sirolimus and similar substances include but are not limited to tetrahydrofuran (THF), di-chloromethane (DCM), chloroform, and di-methyl-sulfoxide (DMSO). In addition to the high-capacity solvent, solution 524 may include an excipient 526 in order to assist in drug elution. In one embodiment, excipient 526 may be a surfactant such as but not limited to sorbitan fatty acid esters such as sorbitan monooleate and sorbitan monolaurate, polysorbates such as polysorbate 20, polysorbate 60, and polysorbate 80, cyclodextrins such as 2-hydroxypropyl-beta-cyclodextrin and 2,6-di-O-methyl-beta-cyclodextrin, sodium dodecyl sulfate, octyl glucoside, and low molecular weight poly(ethylene glycol)s. In another embodiment, excipient 526 may be a hydrophilic agent such as but not limited to salts such as sodium chloride and other materials such as urea, citric acid, and ascorbic acid. […]

[2] = solubilizing capacity of supercritical CO2 for drug; type: physicochemical; conditions: supercritical carbon dioxide

## CO[C@H]1C[C@@H]2CC[C@@H](C)[C@@](O)(O2)C(=O)C(=O)N2CCCC[C@H]2C(=O)O[C@H]([C@H](C)C[C@@H]2CC[C@@H](O)[C@H](OC)C2)CC(=O)[C@H](C)/C=C(\C)[C@@H](O)[C@@H](OC)C(=O)[C@H](C)C[C@H](C)/C=C/C=C/C=C/1C [sirolimus]
[1]; high capacity solvents: tetrahydrofuran, di-chloromethane, chloroform, di-methyl-sulfoxide
  ability of solvent to dissolve therapeutic substance (high capacity solvent): greater than 500 mg of substance per milliliter of solvent
[1]; low capacity solvents: methanol, ethanol, propanol, acetonitrile, ethyl lactate, acetone, tetrahydrafuran/water (9:1 weight ratio)
  ability of solvent to dissolve therapeutic substance (low capacity solvent): below 500 mg of drug per milliliter solvent
[2]
  solubilization by SCCO2: low capacity for solubilizing
